# Measured values from the supplement of paper PMC11237882.
# The list shows a part of the results. Values are worked out from sequencing counts and are noisy.
# T1: Homer1 EVH1 domain
# T1 chain: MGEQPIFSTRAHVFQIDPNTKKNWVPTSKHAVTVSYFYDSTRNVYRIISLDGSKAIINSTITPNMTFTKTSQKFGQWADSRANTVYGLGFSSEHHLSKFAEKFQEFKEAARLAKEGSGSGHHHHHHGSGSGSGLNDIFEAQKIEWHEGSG
# Molecular target: T1, Homer1 EVH1 domain
# Assay: enrichment score (AUC of log2 frequency ratio across FACS sorting rounds) (log2 AUC); higher = stronger enrichment for Homer1 EVH1 binding
row,Binder,enrichment score
1,FPPFLMILFIALCLLGSHLGSGPTYPSQAQGLQPRR,3.08
2,QNKVITYIACLMQMYFFILFAGFENFLLSVMAMNRV,3.74
3,RRYPELRKNNIENFSKDKDSIFKLRNLSRRTPKRHG,-0.0357
4,VVILPLSLFRNLGYLGYTSGLSLLCMVFFLIVVICK,1.15
5,MPPPPPFGFGVPAAPVLPFGLTPKKLYKPEVQLRRP,4.6
6,NAPEEKASVGPWLLALFVFVVCGSAIFQIIQSIRMG,2.63
7,IERLLKLAVPNHLIWLIFFYCLFHSCLNAVAELMQL,2.49
8,SIKVANKSDTQFQLHFLSKIYITLIHLVYLLLIINQ,0.982
9,SGHAAILISGNAKLRRAVMTILLWAQSSLKVRADHK,-3.15
10,WAVINHFSNWLATSLSIFYLLKIANFSNLIFLHLKR,0.144
11,WYWSDYRDALSLQCLASFLFLYCACMSPVITFGGLL,-2.37
12,DCAAYTISAAAVLGIIYDNQVYWYEGALLLLIYGLY,-0.795
13,DVSVIRVASGYLLMLAYACLTMLRWDCSKSQGAVGL,4.96
14,LLLVIWCGVSALSMLTCSSVLHSGNFGTDFRPETPL,2.5
15,KWNKYGRPYFCILAALYLLYMICFTTCCVYRPLKFH,0.678
16,PIAKLFSVIKNKLSRKLLCTVFETLSDFESGLKYIT,-1.15
17,FTIFLILFLAFIETPSSLTSTADVRYPAAPWEPPCG,2.44
18,VPLPLLQGWVMFVSVTAFFFSLLFLGMFLSGMVAQI,2.71
19,RPFRASSSTFFFQLVLLLGLLLAAVPLGYVVSSIHS,-4.18
20,ISNIGHIRPQRTILAFVSGIFFILSGLSLVVGLVLY,0.0829
21,RDRSISYSGCMIQLFFFCVCVISECYMLAAMACDRY,-4.54
22,HWENPVVSSQFYGALLGTVCMLYLLPLCWVLTLLNS,4.43

row,Binder,enrichment score
1,MTPPKLRASLSPSLLLLLSGCLLAAARREKGAASNV,3.98
2,SDVRHAVATIFGIYFVIFCFGWYSVHLFVLVLMCYA,-0.109
3,KTNGTGRVRLPPAGFATEGWFIGFVSAIILLLLVLL,-1.45
4,YMHAGSLLLKMGQHGNNVQWRALSELAALCYLIAFQ,3.53
5,MATAERRALGIGFQWLSLATLVLICAGQGGRREDGG,3.16
6,PWAPHALPFWDTPLNHGLNVFVGAALCITMLGLGCT,1.74
7,PLGGHTVWQVVFIAFLTGILALVTIIGNILVIVSFK,4.11
8,NNQKYNFFTFLPGVLFNQFKYFFNLYFLLLACSQFV,3.19
9,FLAGAATFSIIVNTVLLIVEWITHQFCAMALTLTLC,-0.488
10,WIRNLDDELHAIIAGFLAGISMMFYKSTTISMYLAS,-0.0605
11,ADLAKVIQTKSTQCLSYPLTIATLLTSASWCLYGLR,3.52
12,SDLPQLVAAFHSLVGLAAVLTCIAEYIIEYPHFATD,-0.149
13,MSPRGTGCSAGLLMTVGWLLLAGLQSARGTNVTAAG,-0.973
14,REDIRSIEGKFGTGIQSYFSFLRFLVLLNLVIFLII,1.04
15,NVTLLSKQAKFAYKDEYEKFKLYLTIILILISFACR,-0.392
16,LHVYQAYWKAVGQGLALAILFSLLLMQATRNAADWW,2.65
17,PDTRTREASENSGTRSRAWLAVALGAGGAVLLLLWG,0.0518
18,RIFTVPVHNSSFIPLFLIFAMLLPQIPVQFAQCRWF,3.65
19,FPQSSSIVIFLLFFLYGLSSVFFALMLTPLFKKSKH,3.46
20,LLYIWQVYSCYFLYATYGTLAFLFSPLRTWLTLLTP,1.25
21,SVTGVHMKILPFVAQGGVATDFFIFFCIISFSTFIY,0.273
22,KITSKHVKMMLSGVCLFAVFIALLPILGHRDYKIQA,1.06
